# Some of these results come from one statement about several compounds together.
# Assays:
# Alternaria solani = experiment: Activity against early blight of tomato caused by Alternaria solani; format: in vivo; conditions: 250 ppm active compound, tomato leaves sprayed the day before infection, visual rating after 5 days; untreated plants 90% infected
# Botrytis cinerea = experiment: Activity against gray mold on bell pepper leaves caused by Botrytis cinerea, protective application; format: in vivo; conditions: 250 ppm, bell pepper seedlings sprayed the day before inoculation, visual rating after 5 days; untreated plants 70% infected
# Pyrenophora teres = experiment: Activity against net blotch of barley caused by Pyrenophora teres, 1 day protective application; format: in vivo, Pyrenophora [syn. Drechslera] teres; conditions: 250 ppm, barley seedlings sprayed 24 h before inoculation, visual rating after 6 days; untreated plants 90% infected
# Puccinia recondita = experiment: Curative activity against brown rust of wheat caused by Puccinia recondita; format: in vivo; conditions: 250 ppm, curative: wheat seedlings sprayed the day after inoculation, rating after 7 days; untreated plants 90% infected
Compound,infection (Alternaria solani),infection (Botrytis cinerea),infection (Pyrenophora teres),infection (Puccinia recondita)
CC(C)C(C)Nc1c(-c2ncc(Cl)cc2Cl)c(Cl)nc2ncnn12 (racemic) [Example 77],at most 30%,–,–,–
CC1CCN(c2c(-c3ncccc3Cl)c(Cl)nc3ncnn23)CC1 [Example 47],at most 30%,at most 20%,–,–
CC1CCCN1c1c(-c2ncc(Cl)cc2Cl)c(Cl)nc2ncnn12 (racemic) [Example 73],at most 30%,at most 20%,–,–
Cc1nc2ncnn2c(N2CCC(C)CC2)c1-c1c(Cl)cncc1Cl [Example 91],at most 30%,at most 20%,–,–
CC(C)[C@@H](C)Nc1c(-c2ncc(F)cc2F)c(Cl)nc2ncnn12 [Example 9],at most 30%,–,–,–
"Cc1ccnc(-c2c(Cl)nc3ncnn3c2N[C@H](C)C(C)C)c1 [Example 3, R-5-Chloro-7-(1,2-dimethylpropylamino)-6-(4-methylpyridin-2-yl)-[1,2,4]triazolo[1,5-a]pyrimidine]",–,at most 20%,–,–
"CC(C)[C@@H](C)Nc1c(-c2ccncc2Br)c(Cl)nc2ncnn12 (single isomer, unassigned) [Example 43]",at most 30%,at most 20%,–,–
Cc1nc2ncnn2c(N2CCC(C)CC2)c1-c1ncc(Cl)cc1Cl [Example 71],at most 30%,at most 20%,–,–
CC1CCN(c2c(-c3cnc(Cl)cc3Cl)c(Cl)nc3ncnn23)CC1 [Example 83],at most 30%,at most 20%,–,–
Cc1ccc(-c2c(Cl)nc3ncnn3c2N(C)CC(C)C)nc1 [Example 21],at most 30%,at most 20%,–,–
Cc1cc(Cl)c(-c2c(Cl)nc3ncnn3c2N2CCC(C)CC2)c(Cl)n1 [Example 101],at most 30%,at most 20%,–,–
COc1nc2ncnn2c(N2CCC(C)CC2)c1-c1c(Cl)cncc1Cl [Example 88],at most 30%,at most 20%,–,–
CC(C)[C@@H](C)Nc1c(-c2cccnc2Cl)c(Cl)nc2ncnn12 [Example 61],at most 30%,–,–,–
"5-Chloro-7-(4-methylpiperidin-1-yl)-6-(6-methylpyridin-2-yl)-[1,2,4]triazolo-[1,5-a]pyrimidine [Example 5]",–,at most 20%,at most 20%,–
"CC(C)[C@@H](C)Nc1c(-c2ncccc2Cl)c(Cl)nc2ncnn12 (single isomer, unassigned) [Example 50]",–,–,at most 20%,–
"CC(C)[C@@H](C)Nc1c(-c2ccc([N+](=O)[O-])cn2)c(Cl)nc2ncnn12 [Example 2, R-5-Chloro-7-(1,2-dimethylpropylamino)-6-(5-nitropyridin-2-yl)-[1,2,4]triazolo-[1,5-a]pyrimidine]",–,–,at most 20%,–
CC1CCN(c2c(-c3ncc(F)cc3F)c(Cl)nc3ncnn23)CC1 [Example 8],at most 30%,–,at most 20%,–
Cc1ccc(-c2c(Cl)nc3ncnn3c2N[C@H](C)C(C)(C)C)nc1 [Example 26],at most 30%,–,at most 20%,–
CC1CCN(c2c(-c3ccncc3Br)c(Cl)nc3ncnn23)CC1 [Example 41],–,–,at most 20%,–
COc1nc2ncnn2c(N2CCC(C)CC2)c1-c1ncc(Cl)cc1Cl [Example 69],at most 30%,–,at most 20%,–
CC(C)[C@@H](C)Nc1c(-c2c(Cl)cncc2Cl)c(Cl)nc2ncnn12 [Example 72],at most 30%,at most 20%,–,–
CC(C)[C@@H](C)Nc1c(-c2ccncc2Cl)c(Cl)nc2ncnn12 [Example 64],–,–,at most 20%,at most 5%
CC1CCN(c2c(-c3ncc(Cl)cc3Cl)c(Cl)nc3ncnn23)CC1 [Example 28],at most 30%,at most 20%,–,–
Cc1cnccc1-c1c(Cl)nc2ncnn2c1N[C@H](C)C(C)C [Example 40],–,–,–,at most 5%
CC(C)[C@@H](C)Nc1c(-c2ncc(C#N)cc2Cl)c(Cl)nc2ncnn12 [Example 80],at most 30%,–,at most 20%,–

Compound,infection (Alternaria solani),infection (Botrytis cinerea),infection (Pyrenophora teres),infection (Puccinia recondita)
Cc1cc(-c2c(Cl)nc3ncnn3c2N2CCC(C)CC2)ccn1 [Example 46],–,–,at most 20%,–
CC(C)CN(C)c1c(-c2ncc(Cl)cc2Cl)c(Cl)nc2ncnn12 [Example 78],at most 30%,at most 20%,–,–
Cc1cccc(-c2c(Cl)nc3ncnn3c2N[C@H](C)C(C)C)n1 [Example 22],–,at most 20%,–,–
CC(C)C(C)Nc1c(-c2ncccc2Cl)c(Cl)nc2ncnn12 (racemic) [Example 51],at most 30%,at most 20%,–,–
CCc1cnccc1-c1c(Cl)nc2ncnn2c1N1CCC(C)CC1 [Example 56],–,at most 20%,–,–
"CC1CCN(c2c(-c3cnccn3)c(Cl)nc3ncnn23)CC1 [Example 1, 5-Chloro-7-(4-methylpiperidin-1-yl)-6-pyrazin-2-yl-[1,2,4]triazolo[1,5-a]pyrimidine]",at most 30%,–,–,–
Cc1ccc(-c2c(Cl)nc3ncnn3c2N2CCC(C)CC2)nc1 [Example 19],–,–,at most 20%,–
CC1CCN(c2c(-c3ccncc3Cl)c(Cl)nc3ncnn23)CC1 [Example 62],at most 30%,–,at most 20%,–
CC1CCN(c2c(-c3cccnc3Cl)c(Cl)nc3ncnn23)CC1 [Example 60],at most 30%,–,–,at most 5%
"CC(C)[C@@H](C)Nc1c(-c2ncccc2Cl)c(Cl)nc2ncnn12 (single isomer, unassigned) [Example 52]",at most 30%,at most 20%,–,–
CC1CCN(c2c(-c3ncc(C#N)cc3Cl)c(Cl)nc3ncnn23)CC1 [Example 79],at most 30%,at most 20%,–,–
CC(C)[C@@H](C)Nc1c(-c2ccc(Cl)nc2)c(Cl)nc2ncnn12 [Example 38],at most 30%,–,–,–
CC(C)[C@@H](C)Nc1c(-c2ncc(Br)cc2Br)c(Cl)nc2ncnn12 [Example 89],at most 30%,at most 20%,–,–
C=C(C)CN(CC)c1c(-c2ncc(Cl)cc2Cl)c(Cl)nc2ncnn12 [Example 58],at most 30%,at most 20%,–,–
CC1CCN(c2c(-c3ncc(Br)cc3Br)c(Cl)nc3ncnn23)CC1 [Example 90],at most 30%,at most 20%,–,–
CC1CCN(c2c(-c3ncc(Cl)cc3Cl)c(C#N)nc3ncnn23)CC1 [Example 81],at most 30%,at most 20%,–,–
CSc1nc2ncnn2c(N2CCC(C)CC2)c1-c1ncc(Cl)cc1Cl [Example 95],at most 30%,at most 20%,–,–
CC(C)C(C)Nc1c(-c2ncc(Cl)cc2Cl)c(Cl)nc2ncnn12 (racemic) [Example 86],–,at most 20%,–,–
"CC(C)[C@@H](C)Nc1c(-c2ncc(Cl)cc2Cl)c(Cl)nc2ncnn12 (single isomer, unassigned) [Example 30]",at most 30%,at most 20%,–,–
CC(Nc1c(-c2ncc(Cl)cc2Cl)c(Cl)nc2ncnn12)C(C)(C)C (racemic) [Example 66],at most 30%,at most 20%,–,–
CSc1cc(Cl)cnc1-c1c(SC)nc2ncnn2c1N1CCC(C)CC1 [Example 96],at most 30%,at most 20%,–,–
"CC(C)[C@H](C)Nc1c(-c2ncc(Cl)cc2Cl)c(Cl)nc2ncnn12 (single isomer, unassigned) [Example 76]",at most 30%,at most 20%,–,–
CC1CCN(c2c(-c3ncc(Cl)cc3Cl)c([S+](C)[O-])nc3ncnn23)CC1 (stereo not drawn) [Example 97],at most 30%,at most 20%,–,–
C[C@H](Nc1c(-c2ncc(Cl)cc2Cl)c(Cl)nc2ncnn12)C(C)(C)C [Example 74],at most 30%,–,at most 20%,–
CC1CCN(c2c(-c3c(Cl)cncc3Cl)c(Cl)nc3ncnn23)CC1 [Example 68],at most 30%,–,–,–

# — patent US20080227796A1, “7-Amino-6-Hetaryl-1,2,4-Triazolo[1,5-A]Pyrimidine Compounds and the Use Thereof for Controlling Pathogenic Fungi” (BASF Aktiengesellschaft, priority 2004, published 2008)
